Data as given in article PMC11115967.
No constants are given. Whether binding was seen depends on the method and setting. In cells and extracts the contact can be indirect. Binding can be weak; no strength is given. Tags and fused reporters may be left off the sequences shown.

Biological target: T1, hexa-HA-tagged Prp4p (S. cerevisiae) (UniProt P20053)
T1 sequence: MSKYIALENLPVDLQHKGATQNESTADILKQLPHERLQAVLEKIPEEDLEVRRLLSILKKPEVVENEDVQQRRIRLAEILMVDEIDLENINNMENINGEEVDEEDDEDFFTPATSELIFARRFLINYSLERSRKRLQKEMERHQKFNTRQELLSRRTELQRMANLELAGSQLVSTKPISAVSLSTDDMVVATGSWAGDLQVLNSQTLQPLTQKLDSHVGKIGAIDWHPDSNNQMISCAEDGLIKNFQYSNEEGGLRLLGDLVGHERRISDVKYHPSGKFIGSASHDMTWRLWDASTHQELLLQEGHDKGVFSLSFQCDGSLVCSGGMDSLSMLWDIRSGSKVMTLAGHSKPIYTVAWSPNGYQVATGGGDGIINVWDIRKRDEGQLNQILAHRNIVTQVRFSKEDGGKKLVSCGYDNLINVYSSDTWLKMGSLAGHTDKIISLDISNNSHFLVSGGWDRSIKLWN
Assay: co-IP; immunopurification of the spliceosome: 1 mg extract of UV-irradiated WT (yBD608) and rrp6-Δ (yBD614) cells with genomically hexa-HA-tagged Prp4p, anti-HA antibody, protein A-agarose, 4°C; western blot

- binding: binds
Substance: Prp80p (S. cerevisiae)
